Test results from PubChem BioAssay AID330 (DTP/NCI, 2004).
The list is a part of this screen's results and no random one: it covers a few groups of compounds. Other doses and runs of a compound may be missing. T/C gives the treated animals as a percentage of the vehicle group. Some doses have a count of surviving animals in place of a T/C: the source holds a T/C of zero for them, seemingly a mark for toxic or unscored doses. Some survivor counts are full or nearly so, which does not show that the dose was tolerated: the source hardly ever lists a survival T/C far under the control, and the zero likely stands for such cases as well. Counts of survivors are from the toxicity check (mostly the fifth day) where no day follows; animals may have died later. Schedule codes are those of the source, taken here to give the interval after Q, in days (D) or hours (H), and the number of doses after X. For survival time, the PubChem record calls one and a half times the control and up active, and a quarter to a half above the control has no call in these data; cut-offs in other NCI protocols can differ. Some doses were run more than once; their values stand side by side, smallest first. Some entries show no survivor count and are marked so; the dose need not have been tolerated. Some T/C values carry the count of animals alive at the toxicity check (mostly the fifth day); where neither a count nor a note follows, no animal had died by that day.

Test system: P388 leukemia ip, CD2F1 mice, survival T/C
Test: NCI In Vivo Anticancer Drug Screen. Data for tumor model P388 Leukemia (intraperitoneal) in CD2F1 (CDF1) mice
Conditions: T/C endpoint: median survival time, higher T/C = longer survival
[1] = dose: 12.5 mg/kg/injection, schedule: Q01DX009 (ip), vehicle: saline with Tween-80
[2] = dose: 25.0 mg/kg/injection, schedule: Q01DX009 (ip), vehicle: saline with Tween-80
[3] = dose: 50.0 mg/kg/injection, schedule: Q01DX009 (ip), vehicle: saline with Tween-80
[4] = dose: 100.0 mg/kg/injection, schedule: Q01DX009 (ip), vehicle: saline with Tween-80
[5] = dose: 200.0 mg/kg/injection, schedule: Q01DX009 (ip), vehicle: saline with Tween-80
[6] = dose: 25.0 mg/kg/injection, schedule: Q01DX009 (ip), vehicle: saline
[7] = dose: 50.0 mg/kg/injection, schedule: Q01DX009 (ip), vehicle: saline
[8] = dose: 50.0 mg/kg/injection, schedule: Q01DX009 (ip), vehicle: Klucel (hydroxypropylcellulose) (HPC)
[9] = dose: 100.0 mg/kg/injection, schedule: Q01DX009 (ip), vehicle: Klucel (hydroxypropylcellulose) (HPC)
[10] = dose: 200.0 mg/kg/injection, schedule: Q01DX009 (ip), vehicle: Klucel (hydroxypropylcellulose) (HPC)
[11] = dose: 100.0 mg/kg/injection, schedule: Q01DX009 (ip), vehicle: saline
[12] = dose: 12.5 mg/kg/injection, schedule: Q04DX003 (ip), vehicle: saline with Tween-80
[13] = dose: 50.0 mg/kg/injection, schedule: Q04DX003 (ip), vehicle: saline with Tween-80
[14] = dose: 100.0 mg/kg/injection, schedule: Q04DX003 (ip), vehicle: saline with Tween-80
[15] = dose: 200.0 mg/kg/injection, schedule: Q04DX003 (ip), vehicle: saline with Tween-80
[16] = dose: 400.0 mg/kg/injection, schedule: Q04DX003 (ip), vehicle: saline with Tween-80

SMILES: O=C1NC(=O)C2(CC3CCCC(C2)N3CCCl)N1 (centres undefined)
- T/C (dose: 1.87 mg/kg/injection, schedule: Q01DX005 (ip), vehicle: saline): 87 % of control [5 of 6 alive]
- T/C (dose: 3.75 mg/kg/injection, schedule: Q01DX005 (ip), vehicle: saline): 95 % of control
- T/C (dose: 7.5 mg/kg/injection, schedule: Q01DX005 (ip), vehicle: saline): 129 and 134 % of control
- T/C (dose: 15.0 mg/kg/injection, schedule: Q01DX005 (ip), vehicle: saline): 141 and 142 % of control
- survivor count (dose: 30.0 mg/kg/injection, schedule: Q01DX005 (ip), vehicle: saline): 6 of 6
- survivor count (dose: 60.0 mg/kg/injection, schedule: Q01DX005 (ip), vehicle: saline): 0 of 6
- survivor count (dose: 120.0 mg/kg/injection, schedule: Q01DX005 (ip), vehicle: saline): 0 of 6
- survivor count (dose: 240.0 mg/kg/injection, schedule: Q01DX005 (ip), vehicle: saline): 0 of 6

SMILES: CC(C)OP(C)(=O)O.[Y]
- T/C [1]: 87 % of control [survivor count not shown]
- T/C [2]: 96 [survivor count not shown] and 98 % of control [survivor count not shown]
- T/C [3]: 86 [survivor count not shown] and 91 % of control [survivor count not shown]
- T/C [4]: 92 % of control [survivor count not shown]
- T/C [5]: 94 % of control [survivor count not shown]

SMILES: CC1CN1P(=O)(Nc1ccccn1)N1CC1C (centres undefined)
- T/C (dose: 6.25 mg/kg/injection, schedule: Q01DX009 (ip), vehicle: saline): 122 % of control
- T/C (dose: 12.5 mg/kg/injection, schedule: Q01DX009 (ip), vehicle: saline): 122 % of control
- T/C (dose: 12.5 mg/kg/injection, schedule: Q01DX009 (ip), vehicle: suspension in saline): 113 % of control [5 of 6 alive]
- T/C [6]: 114 % of control [5 of 6 alive]
- T/C (dose: 25.0 mg/kg/injection, schedule: Q01DX009 (ip), vehicle: suspension in saline): 134 % of control
- T/C [7]: 122 % of control
- T/C (dose: 50.0 mg/kg/injection, schedule: Q01DX009 (ip), vehicle: suspension in saline): 153 % of control
- T/C (dose: 100.0 mg/kg/injection, schedule: Q01DX009 (ip), vehicle: suspension in saline): 94 % of control

SMILES: O=C(SC(c1ccccc1)C(Cl)Cl)c1ccccc1 (centres undefined)
- T/C [3]: 93 % of control
- T/C [4]: 89 % of control
- T/C [5]: 98 % of control

SMILES: CO/C(N)=N\P(=O)(Oc1ccccc1)Oc1ccccc1
- T/C [8]: 104 % of control
- T/C [9]: 101 % of control [5 of 6 alive]
- T/C [10]: 100 % of control

SMILES: S=P(N(CCCl)CCCl)(n1ccnc1)n1ccnc1
- T/C (dose: 12.5 mg/kg/injection, schedule: Q01DX001 (ip), vehicle: Klucel (hydroxypropylcellulose) (HPC)): 99 % of control
- T/C (dose: 25.0 mg/kg/injection, schedule: Q01DX001 (ip), vehicle: Klucel (hydroxypropylcellulose) (HPC)): 104 % of control
- T/C (dose: 50.0 mg/kg/injection, schedule: Q01DX001 (ip), vehicle: Klucel (hydroxypropylcellulose) (HPC)): 101 % of control

SMILES: O=[N+]([O-])c1cc([N+](=O)[O-])c(O)c([N+](=O)[O-])c1.OCCN1CCOc2cc3nc4ccccc4nc3cc21
- T/C [7]: 98 % of control [survivor count not shown]
- T/C [11]: 100 % of control [survivor count not shown]
- T/C (dose: 200.0 mg/kg/injection, schedule: Q01DX009 (ip), vehicle: saline): 96 % of control [survivor count not shown]

SMILES: CC(=O)c1cccc2ccc(N(CCCl)CCCl)cc12
- T/C [8]: 100 and 111 % of control
- T/C [9]: 110 and 129 % of control
- T/C [10]: 108 and 148 % of control
- T/C (dose: 400.0 mg/kg/injection, schedule: Q01DX009 (ip), vehicle: Klucel (hydroxypropylcellulose) (HPC)): 121 % of control

SMILES: NC(CC(=O)O)c1cccc(N(CCCl)CCCl)c1 (centres undefined)
- T/C (dose: 0.2 mg/kg/injection, schedule: Q04DX003 (ip), vehicle: saline with Tween-80): 118 % of control
- T/C (dose: 0.4 mg/kg/injection, schedule: Q04DX003 (ip), vehicle: saline with Tween-80): 118 % of control
- T/C (dose: 0.75 mg/kg/injection, schedule: Q04DX003 (ip), vehicle: saline with Tween-80): 136 % of control
- T/C (dose: 0.8 mg/kg/injection, schedule: Q04DX003 (ip), vehicle: saline with Tween-80): 131 % of control
- T/C (dose: 1.5 mg/kg/injection, schedule: Q04DX003 (ip), vehicle: saline with Tween-80): 140 % of control
- T/C (dose: 3.0 mg/kg/injection, schedule: Q04DX003 (ip), vehicle: saline with Tween-80): 150 % of control
- T/C (dose: 3.13 mg/kg/injection, schedule: Q04DX003 (ip), vehicle: saline with Tween-80): 141 % of control
- T/C (dose: 6.25 mg/kg/injection, schedule: Q04DX003 (ip), vehicle: saline with Tween-80): 170 % of control
- T/C [12]: 208 % of control
- T/C [6]: 150 % of control
- T/C (dose: 37.5 mg/kg/injection, schedule: Q04DX003 (ip), vehicle: saline with Tween-80): 245 % of control
- T/C [7]: 163 % of control
- T/C [13]: 272 % of control
- T/C (dose: 75.0 mg/kg/injection, schedule: Q04DX003 (ip), vehicle: saline with Tween-80): 272 % of control [5 of 6 alive]
- T/C [11]: 209 % of control
- T/C [14]: 113 % of control [5 of 6 alive]
- survivor count [15]: 0 of 6
- survivor count [16]: 0 of 6

SMILES: C=C(C(=O)O)[As](=O)(O)O
- T/C [1]: 116 % of control
- T/C [2]: 114 % of control
- T/C [3]: 109 % of control [5 of 6 alive]

SMILES: O=C(O)COc1ccc(N(CCCl)CCCl)cc1
- T/C [12]: 109 % of control
- survivor count (dose: 25.0 mg/kg/injection, schedule: Q04DX003 (ip), vehicle: saline with Tween-80): 6 of 6
- survivor count [13]: 3 of 6
- survivor count [14]: 4 of 6
- survivor count [15]: 0 of 6
- survivor count [16]: 0 of 6

SMILES: NC(=S)N/N=C/c1ccc(N(CCCl)CCCl)cc1
- T/C (dose: 25.0 mg/kg/injection, schedule: Q01DX009 (ip), vehicle: Klucel (hydroxypropylcellulose) (HPC)): 109 and 115 % of control
- T/C [8]: 119 and 120 % of control
- T/C [9]: 100 and 129 % of control
- T/C [10]: 129 % of control
- survivor count [10]: 6 of 6

SMILES: COP(C)(=O)O.[Ce]
- T/C (dose: 50.0 mg/kg/injection, schedule: Q04DX003 (ip), vehicle: saline): 87 % of control [survivor count not shown]
- T/C (dose: 100.0 mg/kg/injection, schedule: Q04DX003 (ip), vehicle: saline): 96 % of control [survivor count not shown]
- T/C (dose: 200.0 mg/kg/injection, schedule: Q04DX003 (ip), vehicle: saline): 96 % of control [survivor count not shown]

SMILES: COc1cc([N+](=O)[O-])c2nc(C(O)C[N+](=O)[O-])ccc2c1[N+](=O)[O-] (centres undefined)
- T/C (dose: 3.13 mg/kg/injection, schedule: Q01DX009 (ip), vehicle: distilled water + Tween-80): 106 % of control
- T/C (dose: 6.25 mg/kg/injection, schedule: Q01DX009 (ip), vehicle: distilled water + Tween-80): 100 % of control
- T/C (dose: 12.5 mg/kg/injection, schedule: Q01DX009 (ip), vehicle: distilled water + Tween-80): 98 and 104 % of control
- T/C (dose: 25.0 mg/kg/injection, schedule: Q01DX009 (ip), vehicle: distilled water + Tween-80): 88 and 100 % of control
- T/C (dose: 50.0 mg/kg/injection, schedule: Q01DX009 (ip), vehicle: distilled water + Tween-80): 90 and 98 % of control [4 of 5 alive]
- T/C (dose: 100.0 mg/kg/injection, schedule: Q01DX009 (ip), vehicle: distilled water + Tween-80): 98 % of control [4 of 5 alive]
- survivor count (dose: 200.0 mg/kg/injection, schedule: Q01DX009 (ip), vehicle: distilled water + Tween-80): 2 of 5
